Data as given in PubChem BioAssay AID1259308 (NCATS, 2017)
Assay: 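Candidate targets for better recombinant protein yield in mammalian cells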 (primary screen). System: human HEK293 embryonic kidney cells stably expressing firefly luciferase (HEK-CMV-Luc2-Hygro). Knock-down reagent: single siRNA against human genes, 0.8 pmol siRNA per well. Duration: 72 h. Measurement: 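Luciferase light (ONE-Glo) measured on one replicate plate set and viability (CellTiter-Glo) on the other, scaled to a negative control siRNA, with robust z-scores and luciferase per cell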. Reading the numbers: total luciferase, z-score: higher = more reporter protein produced. Active means: 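An siRNA counts as active if its total luciferase robust z-score exceeds 3; genes with two or more such siRNAs out of three were retested with fresh siRNAs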. Meaning of the calls: active = raised luciferase; inactive = no rise.
The whole screen tested about 59,000 reagents; shown is a random part of them. About 1,510 of all reagents (2.6%) count as active. 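Calls use total luciferase alone and ignore viability, so some active siRNAs may act by altering cell number.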 Entries without a mark were called inactive. The numbers tell different reagents against one gene apart. Not all columns of the deposit are shown.

{"Gene": "DLEC1", "siRNA no.": 1, "total luciferase, z-score": 1.98}
{"Gene": "DLEC1", "siRNA no.": 2, "total luciferase, z-score": -0.998}
{"Gene": "DLEC1", "siRNA no.": 3, "total luciferase, z-score": -0.0512}
{"Gene": "MYO9B", "siRNA no.": 1, "total luciferase, z-score": 0.887}
{"Gene": "MYO9B", "siRNA no.": 2, "total luciferase, z-score": 0.343}
{"Gene": "MYO9B", "siRNA no.": 3, "total luciferase, z-score": 0.27}
{"Gene": "RUFY2", "siRNA no.": 1, "total luciferase, z-score": 1.23}
{"Gene": "RUFY2", "siRNA no.": 2, "total luciferase, z-score": -1.31}
{"Gene": "RUFY2", "siRNA no.": 3, "total luciferase, z-score": 1.96}
{"Gene": "TAS1R2", "siRNA no.": 1, "total luciferase, z-score": 0.793}
{"Gene": "TAS1R2", "siRNA no.": 2, "total luciferase, z-score": 0.893}
{"Gene": "TAS1R2", "siRNA no.": 3, "total luciferase, z-score": 0.875}
{"Gene": "DAAM2", "siRNA no.": 1, "total luciferase, z-score": 0.521}
{"Gene": "DAAM2", "siRNA no.": 2, "total luciferase, z-score": -2.07}
{"Gene": "DAAM2", "siRNA no.": 3, "total luciferase, z-score": -0.688}
{"Gene": "TYRO3", "siRNA no.": 1, "total luciferase, z-score": -0.976}
{"Gene": "TYRO3", "siRNA no.": 2, "total luciferase, z-score": 0.901}
{"Gene": "TYRO3", "siRNA no.": 3, "total luciferase, z-score": 0.466}
{"Gene": "ACSS1", "siRNA no.": 1, "total luciferase, z-score": 0.998}
{"Gene": "ACSS1", "siRNA no.": 2, "total luciferase, z-score": 2}
{"Gene": "ACSS1", "siRNA no.": 3, "total luciferase, z-score": -1.6}
{"Gene": "CHTF8", "siRNA no.": 1, "total luciferase, z-score": 0.176}
{"Gene": "CHTF8", "siRNA no.": 2, "total luciferase, z-score": 1.43}
{"Gene": "CHTF8", "siRNA no.": 3, "total luciferase, z-score": 0.0457}
{"Gene": "GSTA3", "siRNA no.": 1, "total luciferase, z-score": 0.309}
{"Gene": "GSTA3", "siRNA no.": 2, "total luciferase, z-score": -1.64}
{"Gene": "GSTA3", "siRNA no.": 3, "total luciferase, z-score": 1.81}
{"Gene": "TTC3", "siRNA no.": 1, "total luciferase, z-score": 0.0197}
{"Gene": "TTC3", "siRNA no.": 2, "total luciferase, z-score": -0.402}
{"Gene": "TTC3", "siRNA no.": 3, "total luciferase, z-score": -1.47}
{"Gene": "PXYLP1", "siRNA no.": 1, "total luciferase, z-score": -0.35}
{"Gene": "PXYLP1", "siRNA no.": 2, "total luciferase, z-score": -1.48}
{"Gene": "PXYLP1", "siRNA no.": 3, "total luciferase, z-score": -1.83}

Taken from above:
For “total luciferase, z-score”, MYO9B #2 has 0.343
MYO9B #3, total luciferase, z-score: 0.27
